Test results reported in US11230581B2, “Peptides and combination of peptides for use in immunotherapy against ovarian cancer and other cancers” (Immatics Biotechnologies GmbH, priority 2015, dated 2022).

Assays:
[1] = tested on: ovarian cancer samples; test: Relative LC-MS quantitation of HLA-presented peptides: presentation and over-presentation on ovarian cancer vs a panel of normal tissues (presentation score); parameters: species or system human; key: +++: very highly over-presented on tumors compared to a panel of normal tissues; ++: highly over-presented on tumors compared to a panel of normal tissues; +: over-presented on tumors compared to a panel of normal tissues; conditions: over-presentation on tumors compared to a panel of normal tissues
[2] = tested on: additional tumor types; test: LC-MS detection and over-presentation of the peptides on additional tumor types, cell lines and primary cultures; parameters: species or system human; conditions: for Additional organs/cancerous diseases: additional tumor types with over-presentation on more than 5% of the measured tumor samples, or presentation on more than 5% with ratio of geometric means tumor vs normal tissues larger than 3; for Other relevant organs/ cancerous diseases: Table 4A: additional tumor types on which the peptide was found, over-presented on more than 5% of measured tumor samples, or presented on more than 5% with ratio of geometric means tumor vs normal tissues larger than 3

Substance | Peptide Presentation (presentation score) [1] | Additional organs/cancerous diseases [2] | Other relevant organs/ cancerous diseases [2]
224 (TLIDAQWVL; listed as Homo sapiens) [compound 224] | +++ | HNSCC | 
226 (MLYVVPIYL; listed as Homo sapiens) [compound 226] | +++ | SCLC, Melanoma, AML, NHL | BrCa
227 (ALMNTLLYL; listed as Homo sapiens) [compound 227] | +++ | Uterine Cancer, AML, HNSCC | 
228 (AMQEYIAVV; listed as Homo sapiens) [compound 228] | + | PC, Melanoma, HNSCC | NSCLC, SCLC, Uterine Cancer, Gallbladder Cancer, Bile Duct Cancer
229 (RLPGPLGTV; listed as Homo sapiens) [compound 229] | ++ | BRCA, Melanoma, Gallbladder Cancer and Bile Duct Cancer | HCC, Esophageal Cancer, Endometrium
233 (VLSETLYEL; listed as Homo sapiens) [compound 233] | ++ | BRCA, HNSCC | SCLC, Endometrium
234 (ALMEDTGRQML; listed as Homo sapiens) [compound 234] | +++ | Brain Cancer, Urinary Bladder Cancer, Gallbladder Cancer and Bile Duct Cancer, HNSCC | NSCLC, SCLC, HCC, Esophageal Cancer
236 (GLLEAKVSL; listed as Homo sapiens) [compound 236] | +++ | Gallbladder Cancer and Bile Duct Cancer | 
237 (ALLEASGTLLL; listed as Homo sapiens) [compound 237] | +++ | BRCA, AML | SCLC, HCC, PrC, Leukemia, Uterine Cancer, Gallbladder Cancer, Bile Duct Cancer
238 (YLISFQTHI; listed as Homo sapiens) [compound 238] | +++ | CLL | 
240 (ILLEQAFYL; listed as Homo sapiens) [compound 240] | +++ |  | SCLC
241 (SLVEVNPAYSV; listed as Homo sapiens) [compound 241] | +++ |  | Prostate, Gallbladder, Bile duct
242 (AIAYILQGV; listed as Homo sapiens) [compound 242] | +++ | RCC, CRC, CLL, Melanoma, Uterine Cancer, AML, NHL, HNSCC | SCLC, Leukemia, BrCa, Esophageal Cancer, Urinary bladder Cancer
243 (LLLNELPSV; listed as Homo sapiens) [compound 243] | ++ | SCLC, BRCA, Melanoma, Urinary Bladder Cancer, Gallbladder Cancer and Bile Duct Cancer, AML, HNSCC | Colon, Rectum, Esophageal Cancer
244 (SLFGGTEITI; listed as Homo sapiens) [compound 244] | +++ | Uterine Cancer | 
246 (LLWEVVSQL; listed as Homo sapiens) [compound 246] | +++ | BRCA | 
247 (VLLPNDLLEKV; listed as Homo sapiens) [compound 247] | +++ | Melanoma | Brain Cancer
248 (FLFPNQYVDV; listed as Homo sapiens) [compound 248] | + | CLL, BRCA | NSCLC, SCLC, HCC, Leukemia, Melanoma
249 (LLDGFLVNV; listed as Homo sapiens) [compound 249] | +++ | CLL, Melanoma, NHL | SCLC
251 (ALYTGFSILV; listed as Homo sapiens) [compound 251] | +++ |  | SCLC, Leukemia, Melanoma
252 (LLIGTDVSL; listed as Homo sapiens) [compound 252] | +++ | CLL, NHL | PrC, Leukemia, Esophageal Cancer, Urinary bladder Cancer
253 (GLDAATATV; listed as Homo sapiens) [compound 253] | +++ |  | Prostate, Leukemia

Substance | Peptide Presentation (presentation score) [1] | Additional organs/cancerous diseases [2] | Other relevant organs/ cancerous diseases [2]
255 (VLASYNLTV; listed as Homo sapiens) [compound 255] | +++ |  | BrCa
256 (FLPPEHTIVYI; listed as Homo sapiens) [compound 256] | +++ | CLL, Uterine Cancer | SCLC, HCC, Leukemia, Melanoma
257 (SIFSAFLSV; listed as Homo sapiens) [compound 257] | +++ | Melanoma, Gallbladder Cancer and Bile Duct Cancer, AML, NHL | Stomach, Urinary bladder Cancer
259 (TLMRQLQQV; listed as Homo sapiens) [compound 259] | ++ | Uterine Cancer | 
261 (YVLEFLEEI; listed as Homo sapiens) [compound 261] | + | RCC, CLL, BRCA | 
263 (LLVSNLDFGV; listed as Homo sapiens) [compound 263] | +++ | CRC, CLL, Urinary Bladder Cancer, AML, NHL | NSCLC, SCLC, RCC, Leukemia
267 (ALQDFLLSV; listed as Homo sapiens) [compound 267] | +++ | NSCLC, SCLC, CRC, BRCA, Melanoma, Urinary Bladder Cancer, AML, NHL, HNSCC | HCC, Esophageal Cancer, Endometrium
271 (LVYPLELYPA; listed as Homo sapiens) [compound 271] | ++ | Gallbladder Cancer and Bile Duct Cancer | RCC, HCC, Leukemia, BrCa, Esophageal Cancer, Urinary bladder Cancer
274 (SLLFSLFEA; listed as Homo sapiens) [compound 274] | + | Urinary Bladder Cancer, AML, NHL | 
275 (YLVYILNEL; listed as Homo sapiens) [compound 275] | + | CLL, Melanoma, NHL | RCC, GC, HCC, PC, Leukemia, Esophageal Cancer
277 (LLPPLESLATV; listed as Homo sapiens) [compound 277] | + | CLL, BRCA, Urinary Bladder Cancer, HNSCC | SCLC, Leukemia, Melanoma
278 (QLLDVVLTI; listed as Homo sapiens) [compound 278] | + | HNSCC | 
279 (ALWGGTQPLL; listed as Homo sapiens) [compound 279] | ++ |  | SCLC, Brain Cancer, Esophageal Cancer
280 (VLPDPEVLEAV; listed as Homo sapiens) [compound 280] | + | Gallbladder Cancer and Bile Duct Cancer, NHL, SCLC | Prostate, Leukemia
281 (ILRESTEEL; listed as Homo sapiens) [compound 281] | + | Melanoma | 
282 (LLADVVPTT; listed as Homo sapiens) [compound 282] | + | CLL, Uterine Cancer, AML, NHL, HNSCC | Leukemia, Melanoma
285 (QLLHVGVTV; listed as Homo sapiens) [compound 285] | + | CLL, Melanoma, Urinary Bladder Cancer, AML, NHL | NSCLC, RCC, CRC, Leukemia, Esophageal Cancer
288 (NLINEINGV; listed as Homo sapiens) [compound 288] | +++ |  | SCLC, PrC, Esophageal Cancer, Urinary bladder Cancer, Uterine Cancer
289 (VLLEIEDLQV; listed as Homo sapiens) [compound 289] | + | CLL, NHL | Leukemia, BrCa
292 (LLWEAGSEA; listed as Homo sapiens) [compound 292] | + | Melanoma | Brain Cancer, PC
296 (FMEGAIIYV; listed as Homo sapiens) [compound 296] | ++ |  | SCLC, Leukemia
298 (VMITKLVEV; listed as Homo sapiens) [compound 298] | ++ | Gallbladder Cancer and Bile Duct Cancer | Urinary bladder Cancer
